# Data taken from PubChem BioAssay AID504444 (National Center for Advancing Translational Sciences (NCATS), 2011).
# Hit rate of the full screen: of about 360,000 compounds, about 7,500 (2.1%) were called active. This list was built around the results that the source calls inconclusive (neither active nor inactive); the mix of calls is not that of the screen. Calls come from the whole dose curve; as a rule, active = well fitted inhibition curve with a large enough effect; inconclusive = small, poorly fitted or top-dose-only effect, or effect the other way; inactive = flat fitted curve, though single readings scatter. Potencies of inconclusive entries are doubtful fits and often do not repeat.
# Experiment: Nrf2 qHTS screen for inhibitors; note: nearly all actives have a fitted effect of over 60% in size
# Details: A549 ARE-Fluc reporter, luciferase luminescence, 18-24 h; activity change, negative = inhibition: at 46 µM (top of the series)
# How it was run: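 A549 ARE_Fluc cells, 5000/well, 5% FBS OPTI-MEM; compounds in dose-response, 18-24 h at 37 °C/5% CO2; CellTiter-Fluor viability read (Ex 405/Em 525), then BugLite luciferase luminescence = Nrf2 activity.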
# % is set by controls: 0 for no effect and ±100 for the full control effect; potency is the fitted concentration of half-maximal effect.
Compound,Potency,"activity change, negative = inhibition"
Cc1ccc2c(c1C)-c1c(ccc(C)c1C)C(=O)C2=O,"inconclusive: 29.1 µM [falling, single point]",–
Cc1ccc2c(c1)C(=O)N1[C@H]3c4cc(Cl)ccc4OC[C@@H]3[C@H](c3ccccc3)[C@]1(C)C(=O)N2,"inconclusive: 2.59 µM [activator, full curve, poor fit]",–
O=[N+]([O-])c1cc(S(=O)(=O)N2CCCC2)ccc1OCCOc1ccccc1,"inconclusive: 9.2 µM [falling, partial curve]",–
O=C(O)c1ccc(N/N=C/C2=C(N3CCOCC3)C(=C\c3ccccc3)/CC2)cc1,"inconclusive: 4.11 µM [activator, full curve]",–
Oc1ccc2ccccc2c1CNc1ccc2ccccc2c1,"inconclusive: 11.6 µM [activator, partial curve, poor fit]",–
COc1ccc(-c2cn3cccnc3n2)cc1Br,"inconclusive: 14.6 µM [activator, partial curve]",–
Cc1nn(-c2ccccc2)c2sc(C(=O)N3CCOCC3)cc12,"inconclusive: 8.2 µM [activator, partial curve]",–
CCOC(=O)c1c(N)c(C#N)c2n1CCCCC2,–,inactive: -8.76%
O=S(=O)(CC(CN1CCCC1)N1CCCC1)c1ccc2ccccc2c1 (stereo unspecified),"inconclusive: 7.31 µM [falling, partial curve, poor fit]",–
COc1ccc(CCNC(=O)CSCc2nc(-c3ccc(OC)c(OC)c3)oc2C)cc1OC,"inconclusive: 6.51 µM [falling, full curve, poor fit]",–
Cc1ccc(S(=O)(=O)Nc2cccc(-c3cn4ccsc4n3)c2)cc1,"inconclusive: 18.4 µM [falling, single point]",–
O=C1CN(c2ccccc2)C(=S)N1C(=O)c1ccccc1,"inconclusive: 4.11 µM [activator, partial curve, poor fit]",–
Cc1ccc2nc(-c3ccc(NC(=O)COC(=O)c4cncc(Br)c4)cc3)sc2c1,"inconclusive: 0.58 µM [activator, full curve]",–
Cc1cc(=O)oc2cc(OCC(=O)N3CCN(C(=O)c4ccco4)CC3)ccc12,"inconclusive: 4.61 µM [falling, full curve]",–
CC1CCCN(C(=O)Cn2c(=O)n(CC3CCC(C(=O)NC(C)C)CC3)c(=O)c3sccc32)C1 (stereo unspecified),"inconclusive: 6.51 µM [falling, single point]",–
O=c1[nH]c(=S)c2[nH]cnc2[nH]1,–,inactive: -16.4%
Cn1c(-n2cccc2)c(-c2c(-c3ccc(F)cc3)[nH]c3c2c(=O)[nH]c(=O)n3C)c(=O)[nH]c1=O,–,inactive: 13.2%
CCOC(=O)c1scc(-c2ccc(C)cc2)c1S(=O)(=O)Nc1ccc(F)c(F)c1,"inconclusive: 23.1 µM [activator, single point]",–
O=C(NC(=S)Nc1ccc(CN2CCCCC2)cc1)c1cc2ccccc2o1,"inconclusive: 11.6 µM [activator, partial curve, poor fit]",–
COc1ccccc1CNC(=O)C(=O)NCCC1CCCCN1S(=O)(=O)c1ccccc1 (stereo unspecified),"inconclusive: 23.1 µM [falling, partial curve, poor fit]",–
Cc1ccc(-n2cccn2)c([C@@H]2C[C@H]3CN(C)C(=O)[C@]34CCCN24)c1,"inconclusive: 0.164 µM [falling, full curve, poor fit]",–

Compound,Potency,"activity change, negative = inhibition"
Cc1cc([N+](=O)[O-])nn1CC(=O)Nc1ccccn1,"inconclusive: 20.6 µM [activator, single point]",–
O=C(NCCc1ccccc1)c1cccc(NC(=O)C2CCC2)c1,"inconclusive: 16.4 µM [activator, partial curve]",–
CC1=CC(=O)C(C(C)C)=C/C1=N/OC(=O)c1cccc([N+](=O)[O-])c1,–,inactive: -15.8%
CCOC(=O)c1ccc(NC(=O)CN2C(=O)CC(c3ccc(C)c(C)c3)=Nc3ccccc32)cc1,"inconclusive: 4.11 µM [falling, single point]",–
Cc1cc(Cl)ccc1OCC(=O)NC(=S)Nc1ccc(Cl)cn1,"inconclusive: 6.51 µM [activator, full curve, poor fit]",–
Cc1cc(NC(=O)CN2C(=O)CSc3ccc(S(=O)(=O)N(C)C)cc32)ccc1Br,"inconclusive: 14.6 µM [falling, partial curve, poor fit]",–
O=C(NCCc1c[nH]c2ccccc12)C(=O)NCC1OCCN1S(=O)(=O)c1ccc(Cl)cc1 (stereo unspecified),active: 23.1 µM,–
CCN(CC)S(=O)(=O)c1ccc2oc(SCC(=O)NC3CC3)nc2c1,–,inactive: 16.8%
N#Cc1cccc(C(=O)Nc2ccc(S(=O)(=O)Nc3nccs3)cc2)c1,–,inactive: -2.07%
O=C1CSC(c2ccc([N+](=O)[O-])cc2)N1c1ccccc1F (stereo unspecified),"inconclusive: 0.259 µM [falling, full curve, poor fit]",–
CC(C)c1nnc(NC(=O)c2nc(S(=O)(=O)Cc3ccccc3)ncc2Cl)s1,"inconclusive: 29.1 µM [falling, single point]",–
COc1ccc(Cl)cc1NC(=O)CSc1cn(CC(=O)N2CCCC2)c2ccccc12,–,inactive: -23.9%
COCCCNc1nc2ccccc2nc1NS(=O)(=O)c1cc(Cl)ccc1Cl,active: 20.6 µM,–
Cc1ccc(C(=O)N2CCOCC2)cc1[N+](=O)[O-],"inconclusive: 0.146 µM [falling, full curve, poor fit]",–
O=C1/C(=C/c2ccncc2)N=C2CCCCCN12,"inconclusive: 32.6 µM [falling, single point]",–
Cc1ccc(CNC(=O)CN2CCCC(C)C2)cc1 (stereo unspecified),"inconclusive: 29.1 µM [activator, single point]",–
COc1ccccc1CNC(=O)c1cc2c(=O)n(Cc3cccs3)ccc2nc1C,–,inactive: 11.7%
C#CC[N+](C)(C)CC#Cc1ccc(C)cc1,"inconclusive: 20.6 µM [falling, single point]",–
Cc1cccc(Nc2nc(-c3c(C)nc4ccccn34)cs2)c1,active: 9.2 µM,–
CCCCOc1ccc(C2/C(=C(/O)c3ccc4c(c3)CC(C)O4)C(=O)C(=O)N2CCCN2CCOCC2)cc1OC (stereo unspecified),"inconclusive: 29.1 µM [falling, single point]",–

# Two of the compounds above, bar-delimited:
Compound | Potency | activity change, negative = inhibition
N#Cc1cccc(C(=O)Nc2ccc(S(=O)(=O)Nc3nccs3)cc2)c1 | – | inactive: -2.07%
Cc1cccc(Nc2nc(-c3c(C)nc4ccccn34)cs2)c1 | active: 9.2 µM | –
